The other results are listed elsewhere or left out. Repeats are few or missing, and single values can be far off.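 Imaging used 1,536-well plates; nuclei positive for cleaved PARP by antibody were divided by total DNA-stained nuclei to yield the apoptosis fraction. Doses for screening kept most cells viable, and cell lines differ markedly in resting and induced cleaved-PARP levels.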
Experiments:
Assay in all cases: cleaved PARP positive nuclei fraction relative to DMSO control; melanoma cells; higher = more apoptosis
Settings in all cases: library dose: low library concentration; 72 h
MZ2-MEL = tested on: MZ2-MEL
MeWo = tested on: MeWo
RPMI7951 = tested on: RPMI7951
RVH-421 = tested on: RVH-421
SkMel28 = tested on: SkMel28
SkMel2 = tested on: SkMel2
SkMel30 = tested on: SkMel30
SkMel5 = tested on: SkMel5
UACC257 = tested on: UACC257
UACC62 = tested on: UACC62
WM115 = tested on: WM115
WM1716 = tested on: WM1716
WM1745 = tested on: WM1745
WM3526 = tested on: WM3526
WM3619 = tested on: WM3619
WM451Lu = tested on: WM451Lu

Structure (SMILES) | cleaved PARP positive nuclei fraction (MZ2-MEL) [%] | cleaved PARP positive nuclei fraction (MeWo) [%] | cleaved PARP positive nuclei fraction (RPMI7951) [%] | cleaved PARP positive nuclei fraction (RVH-421) [%] | cleaved PARP positive nuclei fraction (SkMel28) [%] | cleaved PARP positive nuclei fraction (SkMel2) [%] | cleaved PARP positive nuclei fraction (SkMel30) [%] | cleaved PARP positive nuclei fraction (SkMel5) [%] | cleaved PARP positive nuclei fraction (UACC257) [%] | cleaved PARP positive nuclei fraction (UACC62) [%] | cleaved PARP positive nuclei fraction (WM115) [%] | cleaved PARP positive nuclei fraction (WM1716) [%] | cleaved PARP positive nuclei fraction (WM1745) [%] | cleaved PARP positive nuclei fraction (WM3526) [%] | cleaved PARP positive nuclei fraction (WM3619) [%] | cleaved PARP positive nuclei fraction (WM451Lu) [%]
Cc1ccc(Nc2nccc(N(C)c3ccc4c(C)n(C)nc4c3)n2)cc1S(N)(=O)=O [Pazopanib] + CCc1ccc(CCOc2ccc(CC3SC(=O)NC3=O)cc2)nc1 [pioglitazone] (first compound 0.4 µM, partner dose 2 µM) | 172 | 28.8 | 72.5 | 69.5 | 148 | 54.7 | 98.4 | 94.4 | 143 | 144 | 85.1 | 82.4 | 104 | 83.5 | 106 | 48.2
O=C(/C=C/c1cccnc1)NCCCCC1CCN(C(=O)c2ccccc2)CC1 + O=C1NC(=O)/C(=C/c2ccc(-c3ccc(F)cc3O)o2)S1 [AS252424] (first compound 0.01 µM, partner dose 1 µM) | 361 | 47.9 | 32.2 | 51.8 | 42.2 | 490 | 381 | 77.8 | 93.9 | 100 | 112 | 22.2 | 91 | 40.7 | 117 | 266
Cc1cn(-c2cc(NC(=O)c3ccc(C)c(Nc4nccc(-c5cccnc5)n4)c3)cc(C(F)(F)F)c2)cn1 [nilotinib] + COc1ccc(-c2ccc3c(N4CCOCC4)nc(N4C[C@@H](C)O[C@@H](C)C4)nc3n2)cc1CO [KU0063794] (first compound 0.2 µM, partner dose 0.02 µM) | 67.7 | 66.6 | 107 | 136 | 266 | 137 | 113 | 68 | 204 | 201 | 81 | 72.7 | 106 | 108 | 99.7 | 22.2
CCCCCCCCCCCCCCCCCCOP(=O)([O-])OC1CC[N+](C)(C)CC1 [Perifosine] + Cn1cc(/C=C2\C(=O)Nc3cccnc32)c2ccccc21 [GW441756] (first compound 0.4 µM, partner dose 0.4 µM) | 90.8 | 106 | 122 | 128 | 95.7 | 28.1 | 44.8 | 85.5 | 285 | 48.6 | 98.7 | 50.7 | 72.5 | 67.2 | 88.3 | 332
COc1cc([C@@H]2c3cc4c(cc3[C@@H](O[C@@H]3O[C@@H]5CO[C@@H](C)O[C@H]5[C@H](O)[C@H]3O)[C@H]3COC(=O)[C@H]23)OCO4)cc(OC)c1O [etoposide] + CO[C@@H]1[C@H](N(C)C(=O)c2ccccc2)C[C@H]2O[C@]1(C)n1c3ccccc3c3c4c(c5c6ccccc6n2c5c31)C(=O)NC4 [Midostaurin] (first compound 0.02 µM, partner dose 0.08 µM) | 49.3 | 196 | 108 | 61.7 | 165 | 87.5 | 50.6 | 83.6 | 79 | 121 | 79.2 | 239 | 94.8 | 97.7 | 104 | 34.6
CC[C@]1(O)C[C@H]2CN(CCc3c([nH]c4ccccc34)[C@@](C(=O)OC)(c3cc4c(cc3OC)N(C=O)[C@H]3[C@@](O)(C(=O)OC)[C@H](OC(C)=O)[C@]5(CC)C=CCN6CC[C@]43[C@@H]65)C2)C1 [vincristine] + COc1ccc(COc2ccc(Cc3cnc(N)nc3N)cc2OC)cc1 [GW2580] (first compound 0.0001 µM, partner dose 1 µM) | 179 | 189 | 121 | 46.2 | 127 | 79.6 | 118 | 73.9 | 141 | 87.7 | 202 | 124 | 79.3 | 98.4 | 103 | 97.9
CCCCCCCCCCCCCCCCCCOP(=O)([O-])OC1CC[N+](C)(C)CC1 [Perifosine] + O=C(O)C(=O)Nc1sc2c(c1C(=O)O)CCNC2 [TCS401] (first compound 0.4 µM, partner dose 1.66667 µM) | 129 | 70.1 | 90.7 | 223 | 128 | 63.3 | 42.6 | 85.1 | 126 | 98.9 | 122 | 74 | 114 | 72.6 | 114 | 40.1
CC[C@]1(O)C[C@H]2CN(CCc3c([nH]c4ccccc34)[C@@](C(=O)OC)(c3cc4c(cc3OC)N(C=O)[C@H]3[C@@](O)(C(=O)OC)[C@H](OC(C)=O)[C@]5(CC)C=CCN6CC[C@]43[C@@H]65)C2)C1 [vincristine] + CCCCCCCCCCCC1=C(O)C(=O)C=C(O)C1=O [Embelin] (first compound 0.0001 µM, partner dose 1.2 µM) | 77.5 | 136 | 85.6 | 35.4 | 191 | 173 | 301 | 193 | 288 | 476 | 762 | 290 | 134 | 108 | 177 | 138
O=C(Nc1cc(C(F)(F)F)cc(C(F)(F)F)c1)c1cc(Cl)ccc1O + Cn1cncc1[C@@](N)(c1ccc(Cl)cc1)c1ccc2c(c1)c(-c1cccc(Cl)c1)cc(=O)n2C [tipifarnib] (first compound 0.016 µM, partner dose 0.01 µM) | 45.3 | 196 | 125 | 86.9 | 73.3 | 189 | 143 | 212 | 130 | 285 | 158 | 121 | 95.5 | 63.5 | 102 | 805
CCCCCCCCCCCCCCCCCCOP(=O)([O-])OC1CC[N+](C)(C)CC1 [Perifosine] + CO[C@@H]1[C@H](N(C)C(=O)c2ccccc2)C[C@H]2O[C@]1(C)n1c3ccccc3c3c4c(c5c6ccccc6n2c5c31)C(=O)NC4 [Midostaurin] (first compound 0.4 µM, partner dose 0.08 µM) | 47.6 | 113 | 130 | 49.6 | 353 | 190 | 74.3 | 82.4 | 36.1 | 525 | 139 | 1070 | 91.9 | 125 | 82.4 | 73.3
O=c1[nH]nc(Sc2ncc([N+](=O)[O-])s2)n1-c1ccc2c(c1)OCCO2 + CN(NC(=O)CC(=O)NN(C)C(=S)c1ccccc1)C(=S)c1ccccc1 [STA4783] (first compound 0.2 µM, partner dose 0.006 µM) | 121 | 102 | 70.3 | 52.3 | 129 | 77.6 | 140 | 247 | 47 | 236 | 147 | 59.7 | 151 | 68 | 126 | 118
Cc1cn(-c2cc(NC(=O)c3ccc(C)c(Nc4nccc(-c5cccnc5)n4)c3)cc(C(F)(F)F)c2)cn1 [nilotinib] + Cn1cncc1[C@@](N)(c1ccc(Cl)cc1)c1ccc2c(c1)c(-c1cccc(Cl)c1)cc(=O)n2C [tipifarnib] (first compound 0.2 µM, partner dose 0.01 µM) | 114 | 55 | 148 | 72.9 | 342 | 149 | 75.6 | 96.5 | 225 | 244 | 50.8 | 94.1 | 86 | 34.4 | 69.6 | 103
CC[C@]1(O)C[C@H]2CN(CCc3c([nH]c4ccccc34)[C@@](C(=O)OC)(c3cc4c(cc3OC)N(C=O)[C@H]3[C@@](O)(C(=O)OC)[C@H](OC(C)=O)[C@]5(CC)C=CCN6CC[C@]43[C@@H]65)C2)C1 [vincristine] + O=C(O)C(=O)Nc1sc2c(c1C(=O)O)CCNC2 [TCS401] (first compound 0.0001 µM, partner dose 1.66667 µM) | 372 | 75.1 | 41.1 | 73 | 122 | 197 | 145 | 78.7 | 405 | 51.9 | 776 | 440 | 135 | 108 | 166 | 543
Cc1ccc(Nc2nccc(N(C)c3ccc4c(C)n(C)nc4c3)n2)cc1S(N)(=O)=O [Pazopanib] + Oc1nc(-c2ccc(C(F)(F)F)cc2)nc2c1CSCC2 [XAV939] (first compound 0.4 µM, partner dose 2 µM) | 29.2 | 121 | 96.4 | 82.5 | 138 | 105 | 232 | 50.2 | 190 | 99.8 | 96.3 | 287 | 103 | 40 | 144 | 18.3
COc1cc([C@@H]2c3cc4c(cc3[C@@H](O[C@@H]3O[C@@H]5CO[C@@H](C)O[C@H]5[C@H](O)[C@H]3O)[C@H]3COC(=O)[C@H]23)OCO4)cc(OC)c1O [etoposide] + Cc1cc([N+](=O)[O-])ccc1NS(=O)(=O)c1cc(Cl)ccc1Cl [FH535] (first compound 0.02 µM, partner dose 1 µM) | 197 | 103 | 76.7 | 93 | 79.3 | 98.4 | 162 | 82.2 | 63.1 | 164 | 118 | 117 | 83.4 | 66.7 | 99.3 | 85.4
Cc1cc(Nc2cc(N3CCN(C)CC3)nc(Sc3ccc(NC(=O)C4CC4)cc3)n2)n[nH]1 [Tozasertib] + NCC(=O)Nc1ccc(-n2nc(C(F)(F)F)cc2-c2ccc3c(ccc4ccccc43)c2)cc1 [OSU03012] (first compound 0.006 µM, partner dose 1 µM) | 169 | 107 | 43.2 | 108 | 149 | 83.4 | 138 | 605 | 153 | 367 | 79.5 | 209 | 128 | 82.8 | 155 | 58.5
O=c1[nH]nc(Sc2ncc([N+](=O)[O-])s2)n1-c1ccc2c(c1)OCCO2 + COc1cc2ncnc(Nc3ccc(Oc4ccccc4)cc3)c2cc1OC [SrcI1] (first compound 0.2 µM, partner dose 2 µM) | 64.9 | 61.3 | 41.7 | 113 | 214 | 52.7 | 72.4 | 63.5 | 134 | 61.8 | 61.7 | 286 | 110 | 70.1 | 68.5 | 59.6

Exported as tab-separated lines: entries from further up
Structure (SMILES)	cleaved PARP positive nuclei fraction (MZ2-MEL) [%]	cleaved PARP positive nuclei fraction (MeWo) [%]	cleaved PARP positive nuclei fraction (RPMI7951) [%]	cleaved PARP positive nuclei fraction (RVH-421) [%]	cleaved PARP positive nuclei fraction (SkMel28) [%]	cleaved PARP positive nuclei fraction (SkMel2) [%]	cleaved PARP positive nuclei fraction (SkMel30) [%]	cleaved PARP positive nuclei fraction (SkMel5) [%]	cleaved PARP positive nuclei fraction (UACC257) [%]	cleaved PARP positive nuclei fraction (UACC62) [%]	cleaved PARP positive nuclei fraction (WM115) [%]	cleaved PARP positive nuclei fraction (WM1716) [%]	cleaved PARP positive nuclei fraction (WM1745) [%]	cleaved PARP positive nuclei fraction (WM3526) [%]	cleaved PARP positive nuclei fraction (WM3619) [%]	cleaved PARP positive nuclei fraction (WM451Lu) [%]
COc1cc([C@@H]2c3cc4c(cc3[C@@H](O[C@@H]3O[C@@H]5CO[C@@H](C)O[C@H]5[C@H](O)[C@H]3O)[C@H]3COC(=O)[C@H]23)OCO4)cc(OC)c1O [etoposide] + Cc1cc([N+](=O)[O-])ccc1NS(=O)(=O)c1cc(Cl)ccc1Cl [FH535] (first compound 0.02 µM, partner dose 1 µM)	197	103	76.7	93	79.3	98.4	162	82.2	63.1	164	118	117	83.4	66.7	99.3	85.4
Cc1cc(Nc2cc(N3CCN(C)CC3)nc(Sc3ccc(NC(=O)C4CC4)cc3)n2)n[nH]1 [Tozasertib] + NCC(=O)Nc1ccc(-n2nc(C(F)(F)F)cc2-c2ccc3c(ccc4ccccc43)c2)cc1 [OSU03012] (first compound 0.006 µM, partner dose 1 µM)	169	107	43.2	108	149	83.4	138	605	153	367	79.5	209	128	82.8	155	58.5
O=c1[nH]nc(Sc2ncc([N+](=O)[O-])s2)n1-c1ccc2c(c1)OCCO2 + COc1cc2ncnc(Nc3ccc(Oc4ccccc4)cc3)c2cc1OC [SrcI1] (first compound 0.2 µM, partner dose 2 µM)	64.9	61.3	41.7	113	214	52.7	72.4	63.5	134	61.8	61.7	286	110	70.1	68.5	59.6
